# The supplement of paper PMC10849652
# Chains of the proteins cited; added tags and fusions are not shown. Lines headed by an entry give the natural chain unless they say otherwise; changes in a name come on top.
# UniProt Q9C005, whole entry, looked up: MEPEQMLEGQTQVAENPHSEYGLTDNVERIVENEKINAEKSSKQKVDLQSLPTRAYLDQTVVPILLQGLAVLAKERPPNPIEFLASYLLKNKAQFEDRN
# UniProt Q9BV94: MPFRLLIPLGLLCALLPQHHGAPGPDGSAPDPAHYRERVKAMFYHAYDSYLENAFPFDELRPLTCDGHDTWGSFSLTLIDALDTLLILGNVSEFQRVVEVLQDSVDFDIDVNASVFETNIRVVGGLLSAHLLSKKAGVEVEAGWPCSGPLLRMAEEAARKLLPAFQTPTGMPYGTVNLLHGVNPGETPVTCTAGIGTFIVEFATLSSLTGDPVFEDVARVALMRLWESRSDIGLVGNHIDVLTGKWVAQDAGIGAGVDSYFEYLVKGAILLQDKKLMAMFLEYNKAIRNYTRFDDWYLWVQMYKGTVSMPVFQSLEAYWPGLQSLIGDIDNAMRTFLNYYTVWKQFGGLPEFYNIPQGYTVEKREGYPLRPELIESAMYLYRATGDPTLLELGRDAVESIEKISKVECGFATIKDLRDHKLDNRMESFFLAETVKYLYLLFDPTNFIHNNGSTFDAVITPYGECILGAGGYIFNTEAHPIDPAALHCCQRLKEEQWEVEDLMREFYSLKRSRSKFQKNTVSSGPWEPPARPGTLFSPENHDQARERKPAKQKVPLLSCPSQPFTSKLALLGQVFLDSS
# UniProt Q86UW9: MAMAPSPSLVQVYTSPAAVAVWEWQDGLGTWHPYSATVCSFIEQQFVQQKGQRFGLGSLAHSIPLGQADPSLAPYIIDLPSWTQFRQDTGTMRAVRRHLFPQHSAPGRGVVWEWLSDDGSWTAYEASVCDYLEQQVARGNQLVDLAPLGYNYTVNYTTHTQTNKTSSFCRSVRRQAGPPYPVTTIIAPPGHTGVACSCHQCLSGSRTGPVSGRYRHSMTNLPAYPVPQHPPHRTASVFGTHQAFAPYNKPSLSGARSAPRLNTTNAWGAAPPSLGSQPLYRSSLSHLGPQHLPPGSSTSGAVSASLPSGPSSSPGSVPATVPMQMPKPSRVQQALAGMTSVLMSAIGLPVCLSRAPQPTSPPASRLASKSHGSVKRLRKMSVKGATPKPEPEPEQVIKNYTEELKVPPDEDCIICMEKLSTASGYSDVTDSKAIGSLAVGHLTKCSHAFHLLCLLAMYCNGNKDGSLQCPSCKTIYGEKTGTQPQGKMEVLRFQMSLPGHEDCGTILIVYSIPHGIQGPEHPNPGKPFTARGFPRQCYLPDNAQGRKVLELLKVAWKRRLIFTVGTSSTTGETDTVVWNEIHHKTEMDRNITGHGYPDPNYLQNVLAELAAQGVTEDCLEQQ
# UniProt Q8WVE0: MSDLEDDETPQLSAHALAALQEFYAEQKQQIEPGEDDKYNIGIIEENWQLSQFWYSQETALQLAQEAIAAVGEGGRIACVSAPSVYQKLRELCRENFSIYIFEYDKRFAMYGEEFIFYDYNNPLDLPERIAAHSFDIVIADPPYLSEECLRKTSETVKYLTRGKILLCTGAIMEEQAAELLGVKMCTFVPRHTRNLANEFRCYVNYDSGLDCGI
# UniProt Q8N5C7: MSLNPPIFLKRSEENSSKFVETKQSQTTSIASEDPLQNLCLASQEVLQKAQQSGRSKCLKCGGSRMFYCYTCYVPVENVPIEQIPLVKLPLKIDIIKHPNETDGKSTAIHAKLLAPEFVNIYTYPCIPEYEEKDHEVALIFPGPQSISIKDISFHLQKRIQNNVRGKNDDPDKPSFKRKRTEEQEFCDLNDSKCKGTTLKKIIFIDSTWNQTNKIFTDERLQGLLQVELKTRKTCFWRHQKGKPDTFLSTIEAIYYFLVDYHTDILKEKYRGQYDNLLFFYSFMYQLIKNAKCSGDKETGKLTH
# UniProt Q9NZN4: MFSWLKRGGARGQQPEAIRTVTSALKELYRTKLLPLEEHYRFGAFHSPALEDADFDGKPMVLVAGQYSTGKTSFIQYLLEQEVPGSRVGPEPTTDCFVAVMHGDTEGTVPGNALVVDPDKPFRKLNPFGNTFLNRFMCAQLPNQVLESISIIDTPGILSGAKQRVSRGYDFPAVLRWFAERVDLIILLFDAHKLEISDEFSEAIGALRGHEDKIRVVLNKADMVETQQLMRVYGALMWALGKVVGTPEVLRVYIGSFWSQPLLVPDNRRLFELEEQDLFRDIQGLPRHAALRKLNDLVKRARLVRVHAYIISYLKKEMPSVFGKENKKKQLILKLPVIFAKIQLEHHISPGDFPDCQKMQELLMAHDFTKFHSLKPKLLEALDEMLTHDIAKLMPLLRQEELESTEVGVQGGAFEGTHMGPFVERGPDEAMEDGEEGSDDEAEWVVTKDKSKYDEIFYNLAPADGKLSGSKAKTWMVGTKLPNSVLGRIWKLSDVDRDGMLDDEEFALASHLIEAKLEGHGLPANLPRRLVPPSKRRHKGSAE
# UniProt Q86TI2: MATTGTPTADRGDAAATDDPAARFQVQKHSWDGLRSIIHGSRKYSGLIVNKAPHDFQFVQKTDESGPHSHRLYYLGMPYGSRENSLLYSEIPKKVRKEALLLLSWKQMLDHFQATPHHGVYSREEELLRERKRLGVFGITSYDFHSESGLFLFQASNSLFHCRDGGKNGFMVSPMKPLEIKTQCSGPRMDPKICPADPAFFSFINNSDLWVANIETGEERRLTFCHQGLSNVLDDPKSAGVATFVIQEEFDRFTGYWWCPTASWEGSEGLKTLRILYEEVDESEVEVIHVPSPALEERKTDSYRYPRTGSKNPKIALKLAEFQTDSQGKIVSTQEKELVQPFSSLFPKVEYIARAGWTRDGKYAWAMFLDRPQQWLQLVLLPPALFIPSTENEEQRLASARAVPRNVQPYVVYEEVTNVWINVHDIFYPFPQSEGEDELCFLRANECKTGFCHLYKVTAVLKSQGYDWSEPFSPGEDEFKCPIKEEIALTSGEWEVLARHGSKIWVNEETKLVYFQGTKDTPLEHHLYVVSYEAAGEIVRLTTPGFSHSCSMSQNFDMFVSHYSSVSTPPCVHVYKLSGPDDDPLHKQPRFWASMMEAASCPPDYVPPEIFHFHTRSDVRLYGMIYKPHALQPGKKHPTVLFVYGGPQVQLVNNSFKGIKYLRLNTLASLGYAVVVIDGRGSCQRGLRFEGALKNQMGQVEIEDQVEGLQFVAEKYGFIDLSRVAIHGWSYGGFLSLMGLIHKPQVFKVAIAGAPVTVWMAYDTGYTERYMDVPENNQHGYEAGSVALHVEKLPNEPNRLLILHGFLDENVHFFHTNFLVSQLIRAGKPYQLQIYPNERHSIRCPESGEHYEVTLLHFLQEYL
# UniProt Q9BZQ6: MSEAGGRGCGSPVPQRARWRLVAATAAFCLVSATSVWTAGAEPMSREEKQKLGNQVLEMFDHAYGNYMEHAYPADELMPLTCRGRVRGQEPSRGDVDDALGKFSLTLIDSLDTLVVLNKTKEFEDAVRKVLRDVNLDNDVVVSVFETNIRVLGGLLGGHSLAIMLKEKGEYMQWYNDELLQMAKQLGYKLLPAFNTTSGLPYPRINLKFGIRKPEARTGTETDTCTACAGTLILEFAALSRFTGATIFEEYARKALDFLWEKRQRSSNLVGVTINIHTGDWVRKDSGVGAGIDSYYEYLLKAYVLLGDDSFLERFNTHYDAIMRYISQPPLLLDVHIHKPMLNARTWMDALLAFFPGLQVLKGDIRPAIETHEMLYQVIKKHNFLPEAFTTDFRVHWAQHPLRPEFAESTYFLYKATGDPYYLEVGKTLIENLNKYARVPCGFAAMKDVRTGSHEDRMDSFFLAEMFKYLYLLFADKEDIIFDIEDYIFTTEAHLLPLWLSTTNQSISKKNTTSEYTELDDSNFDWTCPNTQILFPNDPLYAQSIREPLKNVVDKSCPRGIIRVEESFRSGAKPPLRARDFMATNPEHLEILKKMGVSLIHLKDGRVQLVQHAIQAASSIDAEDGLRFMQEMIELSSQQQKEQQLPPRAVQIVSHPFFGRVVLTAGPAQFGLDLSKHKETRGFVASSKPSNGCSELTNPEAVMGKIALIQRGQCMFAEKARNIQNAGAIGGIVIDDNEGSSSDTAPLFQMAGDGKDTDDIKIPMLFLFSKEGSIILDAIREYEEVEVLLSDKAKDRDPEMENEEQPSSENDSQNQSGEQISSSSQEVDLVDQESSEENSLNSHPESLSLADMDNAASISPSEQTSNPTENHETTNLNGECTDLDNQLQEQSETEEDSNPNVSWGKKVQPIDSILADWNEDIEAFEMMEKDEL
# UniProt Q6XUX3: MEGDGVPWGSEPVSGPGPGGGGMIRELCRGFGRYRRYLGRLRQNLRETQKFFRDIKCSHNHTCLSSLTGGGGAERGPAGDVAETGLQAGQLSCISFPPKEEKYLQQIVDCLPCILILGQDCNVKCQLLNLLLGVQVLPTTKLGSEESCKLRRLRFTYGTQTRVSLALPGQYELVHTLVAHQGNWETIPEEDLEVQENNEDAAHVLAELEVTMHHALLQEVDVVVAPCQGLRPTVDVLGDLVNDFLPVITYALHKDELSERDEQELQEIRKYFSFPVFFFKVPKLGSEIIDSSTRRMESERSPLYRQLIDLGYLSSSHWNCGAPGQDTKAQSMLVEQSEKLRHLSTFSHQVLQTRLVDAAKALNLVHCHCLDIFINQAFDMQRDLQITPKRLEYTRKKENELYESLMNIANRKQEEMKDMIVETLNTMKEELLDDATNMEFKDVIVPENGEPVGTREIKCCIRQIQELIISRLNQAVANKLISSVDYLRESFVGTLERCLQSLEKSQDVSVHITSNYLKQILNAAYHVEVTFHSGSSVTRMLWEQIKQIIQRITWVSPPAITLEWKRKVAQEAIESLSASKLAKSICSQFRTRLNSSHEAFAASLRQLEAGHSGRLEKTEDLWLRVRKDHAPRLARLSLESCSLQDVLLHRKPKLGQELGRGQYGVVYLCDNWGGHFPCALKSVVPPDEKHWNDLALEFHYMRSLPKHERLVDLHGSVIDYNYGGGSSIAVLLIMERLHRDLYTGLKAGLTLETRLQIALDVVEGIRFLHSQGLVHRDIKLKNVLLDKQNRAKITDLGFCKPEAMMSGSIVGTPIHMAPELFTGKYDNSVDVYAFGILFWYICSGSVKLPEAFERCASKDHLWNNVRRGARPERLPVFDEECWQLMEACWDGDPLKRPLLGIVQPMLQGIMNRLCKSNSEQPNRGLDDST
# UniProt P51808: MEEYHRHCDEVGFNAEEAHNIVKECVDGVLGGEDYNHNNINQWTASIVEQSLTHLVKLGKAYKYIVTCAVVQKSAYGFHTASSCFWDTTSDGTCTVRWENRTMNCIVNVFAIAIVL
# UniProt Q92997: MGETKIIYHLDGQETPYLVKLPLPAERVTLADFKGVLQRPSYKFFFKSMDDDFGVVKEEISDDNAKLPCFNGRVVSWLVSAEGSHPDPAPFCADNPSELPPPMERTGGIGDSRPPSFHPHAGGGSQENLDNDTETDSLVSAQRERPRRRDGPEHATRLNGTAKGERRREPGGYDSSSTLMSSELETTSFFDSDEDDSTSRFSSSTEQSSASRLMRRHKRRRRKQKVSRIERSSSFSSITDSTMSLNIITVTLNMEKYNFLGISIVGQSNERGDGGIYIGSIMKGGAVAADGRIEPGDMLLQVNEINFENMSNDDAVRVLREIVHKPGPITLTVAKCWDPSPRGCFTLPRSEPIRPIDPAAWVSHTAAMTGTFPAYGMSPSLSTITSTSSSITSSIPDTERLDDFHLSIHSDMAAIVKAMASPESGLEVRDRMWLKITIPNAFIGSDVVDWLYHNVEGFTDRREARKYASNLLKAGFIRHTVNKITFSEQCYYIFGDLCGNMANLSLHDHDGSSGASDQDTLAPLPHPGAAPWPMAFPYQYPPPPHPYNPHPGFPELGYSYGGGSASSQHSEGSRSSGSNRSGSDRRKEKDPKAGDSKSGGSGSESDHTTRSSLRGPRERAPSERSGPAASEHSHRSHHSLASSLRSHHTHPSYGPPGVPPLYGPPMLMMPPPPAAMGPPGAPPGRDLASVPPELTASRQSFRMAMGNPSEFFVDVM
# UniProt Q6UX65: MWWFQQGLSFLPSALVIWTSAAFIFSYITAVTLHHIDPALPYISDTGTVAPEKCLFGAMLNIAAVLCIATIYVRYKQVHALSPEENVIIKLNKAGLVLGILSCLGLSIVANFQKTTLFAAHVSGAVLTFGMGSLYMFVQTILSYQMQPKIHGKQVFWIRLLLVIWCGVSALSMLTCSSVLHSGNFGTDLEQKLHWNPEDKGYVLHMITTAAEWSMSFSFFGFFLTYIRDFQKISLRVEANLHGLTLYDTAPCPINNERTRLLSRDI
# UniProt Q8WTR2: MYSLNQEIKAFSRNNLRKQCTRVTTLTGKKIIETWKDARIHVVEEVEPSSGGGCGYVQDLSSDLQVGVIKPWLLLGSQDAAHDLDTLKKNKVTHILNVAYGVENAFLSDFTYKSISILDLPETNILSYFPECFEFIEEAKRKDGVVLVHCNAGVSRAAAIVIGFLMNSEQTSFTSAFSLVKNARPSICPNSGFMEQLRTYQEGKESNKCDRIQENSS
# UniProt Q9P2X0: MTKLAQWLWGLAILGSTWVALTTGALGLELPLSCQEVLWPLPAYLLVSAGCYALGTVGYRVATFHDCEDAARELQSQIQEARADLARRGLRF
# The list shows a part of the results.
# Compound: Cc1sc2c(c1C)C(c1ccc(Cl)cc1)=N[C@@H](CC(=O)OC(C)(C)C)c1nnc(C)n1-2
# Experiment: log2 fold change, soluble protein after heating vs DMSO (PISA); higher = thermal stabilisation; K562 lysate, 10 uM; active = over 0.2 and 3.5 SD of the protein, either way, in both replicates (recomputed)
# How it was run: (§1)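 Thermal stability, expressed as log-two fold change relative to solvent controls, is given from duplicates. Crude K562 extract in PBS pH 7.4 with 1 mM MgCl2, at 1 mg/mL protein, was treated with 10 μM compound for 30 min and heated in aliquots for 3 min across 48°C-58°C. After pooling, adjustment to 0.5% NP-40 at 4°C and centrifugation at 21,000xg for 90 min, supernatant protein was measured by TMTpro 16plex LC-MS/MS with channel sums equalised.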
row,Target,log2 fold change
1,EEF1E1 (UniProt O43324),inactive: 0.028
2,DUSP14 (UniProt O95147),inactive: -0.449
3,EI24 (UniProt O14681),inactive: -0.026
4,DPY30 (UniProt Q9C005),inactive: 0.004
5,EID1 (UniProt Q9Y6B2),inactive: 0.024
6,DSCC1 (UniProt Q9BVC3),inactive: 0.122
7,EDEM2 (UniProt Q9BV94),inactive: -0.076
8,DTX2 (UniProt Q86UW9),inactive: 0.003
9,EDC3 (UniProt Q96F86),inactive: 0.031
10,EEF1AKMT1 (UniProt Q8WVE0),inactive: 0.017
11,DUS1L (UniProt Q6P1R4),inactive: 0.077
12,EEF2KMT (UniProt Q96G04),inactive: -0.054
13,DYNC1I1 (UniProt O14576),inactive: -0.055
14,DSN1 (UniProt Q9H410),inactive: -0.013
15,DPH1 (UniProt Q9BZG8),inactive: 0.018
16,DTWD1 (UniProt Q8N5C7),inactive: 0.039
17,EHD2 (UniProt Q9NZN4),inactive: -0.069
18,DPP9 isoform 2 (UniProt Q86TI2),inactive: 0.012
19,EEF2 (UniProt P13639),inactive: 0.007
20,EDEM3 (UniProt Q9BZQ6),inactive: -0.008
21,DROSHA (UniProt Q9NRR4),inactive: -0.11
22,EEF1A2 (UniProt Q05639),inactive: 0.016
23,EHHADH (UniProt Q08426),inactive: -0.086

# Compound: c1ccc([C@@H]2C[C@H]2NC2CCNCC2)cc1
# Experiment: as above
# How it was run: as §1
row,Target,log2 fold change
1,EEF1E1 (UniProt O43324),inactive: 0.042
2,DSTYK (UniProt Q6XUX3),inactive: 0.048
3,DYNLT3 (UniProt P51808),inactive: -0.047
4,DUSP12 (UniProt V9GYV5),inactive: 0.048
5,DUSP14 (UniProt O95147),inactive: 0.044
6,EI24 (UniProt O14681),inactive: 0.111
7,DPY30 (UniProt Q9C005),inactive: 0.286
8,EID1 (UniProt Q9Y6B2),inactive: -0.022
9,DSCC1 (UniProt Q9BVC3),inactive: 0.076
10,EDEM2 (UniProt Q9BV94),inactive: 0.005
11,DTWD2 (UniProt Q8NBA8),inactive: 0.068
12,DSCAML1 (UniProt Q8TD84),inactive: -0.129
13,DST isoform 3 (UniProt Q03001),inactive: 0.586
14,EFCAB2 isoform 2 (UniProt Q5VUJ9),inactive: -0.116
15,DTX2 (UniProt Q86UW9),inactive: 0.079
16,EDC3 (UniProt Q96F86),inactive: 0.008
17,DUS1L (UniProt Q6P1R4),inactive: -0.014
18,DSG3 (UniProt P32926),inactive: -0.265

row,Target,log2 fold change
1,EEF2KMT (UniProt Q96G04),inactive: -0.167
2,DYNC1I1 (UniProt O14576),inactive: 0.129
3,DSN1 (UniProt Q9H410),inactive: 0.02
4,DPH1 (UniProt Q9BZG8),inactive: 0
5,DTWD1 (UniProt Q8N5C7),inactive: 0.095
6,EHD2 (UniProt Q9NZN4),inactive: 0.087
7,DPP9 isoform 2 (UniProt Q86TI2),inactive: 0.025
8,EEF2 (UniProt P13639),inactive: 0.005
9,DVL3 (UniProt Q92997),inactive: 0.27
10,DYRK1A isoform 2 (UniProt Q13627),inactive: -0.339
11,EDEM3 (UniProt Q9BZQ6),inactive: 0.017
12,DRAM2 (UniProt Q6UX65),inactive: -0.131
13,DUSP19 (UniProt Q8WTR2),inactive: -0.253
14,DROSHA (UniProt Q9NRR4),inactive: 0.077
15,EEF1A2 (UniProt Q05639),inactive: 0.017
16,EGLN2 (UniProt Q96KS0),inactive: -0.189
17,DPM3 isoform 2 (UniProt Q9P2X0),inactive: 0.078
18,EHHADH (UniProt Q08426),inactive: 0.031
